# Measured values reported in publication PMC7862700.
# The list shows a part of the results, in another mix than the full data. At the low end of the ranking the order means little.
# Legend:
# Assay in all cases: DAPPL (digital affinity profiling via proximity ligation, sequencing)
# Settings in all cases: 10 mM Tris-HCl pH 7.5, 50 mM NaCl, 1 mM DTT, 4% glycerol, room temperature, 30 min; GST-TFs on glutathione beads, 16-mer random dsDNA library, 0.1% …; high values mean tight binding; double strand, one strand shown; scale: fold enrichment (6-mer frequency, TF over GST control)
# ELK1 = target: T1, ELK1 (UniProt P19419)
# T1 sequence: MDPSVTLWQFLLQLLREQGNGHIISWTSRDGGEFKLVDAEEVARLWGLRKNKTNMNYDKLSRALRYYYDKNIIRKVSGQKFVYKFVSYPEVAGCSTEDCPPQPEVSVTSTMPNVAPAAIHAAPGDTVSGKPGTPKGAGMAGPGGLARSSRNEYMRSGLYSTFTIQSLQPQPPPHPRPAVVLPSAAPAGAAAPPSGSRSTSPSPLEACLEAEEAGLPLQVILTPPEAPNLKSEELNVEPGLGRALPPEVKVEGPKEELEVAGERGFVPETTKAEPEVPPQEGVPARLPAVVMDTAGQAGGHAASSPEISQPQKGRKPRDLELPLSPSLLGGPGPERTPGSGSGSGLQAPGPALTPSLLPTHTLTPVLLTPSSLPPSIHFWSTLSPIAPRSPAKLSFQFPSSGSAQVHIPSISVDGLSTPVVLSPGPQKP
# ELK3 = target: T2, ELK3 (UniProt P41970)
# T2 sequence: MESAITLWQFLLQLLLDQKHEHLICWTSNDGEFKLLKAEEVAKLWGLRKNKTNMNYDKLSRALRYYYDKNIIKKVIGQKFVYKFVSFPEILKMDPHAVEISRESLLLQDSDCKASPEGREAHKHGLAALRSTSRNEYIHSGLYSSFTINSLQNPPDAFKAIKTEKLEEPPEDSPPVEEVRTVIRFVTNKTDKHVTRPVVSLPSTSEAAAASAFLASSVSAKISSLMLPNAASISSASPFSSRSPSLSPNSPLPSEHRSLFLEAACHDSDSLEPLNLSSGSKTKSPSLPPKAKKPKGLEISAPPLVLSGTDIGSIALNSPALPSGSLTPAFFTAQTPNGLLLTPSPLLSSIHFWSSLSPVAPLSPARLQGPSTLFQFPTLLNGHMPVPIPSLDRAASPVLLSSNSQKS
# SPIC = target: T3, SPIC (UniProt Q8N5J4)
# T3 sequence: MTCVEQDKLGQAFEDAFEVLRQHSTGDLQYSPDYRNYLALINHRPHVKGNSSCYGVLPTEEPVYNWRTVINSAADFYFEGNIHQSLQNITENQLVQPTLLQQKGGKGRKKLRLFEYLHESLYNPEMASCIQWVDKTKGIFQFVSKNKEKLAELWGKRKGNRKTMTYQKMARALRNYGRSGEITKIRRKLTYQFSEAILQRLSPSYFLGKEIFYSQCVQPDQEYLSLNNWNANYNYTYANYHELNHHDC
# ETS2 = target: T4, ETS2 (UniProt P15036)
# T4 sequence: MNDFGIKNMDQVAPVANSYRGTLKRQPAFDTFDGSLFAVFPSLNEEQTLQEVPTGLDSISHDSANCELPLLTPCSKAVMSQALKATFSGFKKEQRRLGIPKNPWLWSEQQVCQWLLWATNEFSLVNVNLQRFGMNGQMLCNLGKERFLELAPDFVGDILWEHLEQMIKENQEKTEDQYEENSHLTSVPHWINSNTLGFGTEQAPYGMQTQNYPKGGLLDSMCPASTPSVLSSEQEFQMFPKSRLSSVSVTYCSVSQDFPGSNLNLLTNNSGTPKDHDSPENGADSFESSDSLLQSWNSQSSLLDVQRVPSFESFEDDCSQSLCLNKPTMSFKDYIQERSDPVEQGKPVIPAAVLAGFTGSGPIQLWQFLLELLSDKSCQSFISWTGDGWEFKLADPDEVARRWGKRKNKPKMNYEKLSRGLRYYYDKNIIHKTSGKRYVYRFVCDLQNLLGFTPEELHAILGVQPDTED
# ETV3 = target: T5, ETV3 (UniProt P41162-2)
# T5 sequence: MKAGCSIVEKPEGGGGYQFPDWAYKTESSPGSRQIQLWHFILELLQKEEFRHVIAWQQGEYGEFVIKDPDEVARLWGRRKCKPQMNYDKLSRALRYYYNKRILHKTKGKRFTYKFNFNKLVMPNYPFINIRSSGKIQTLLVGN
Sequence,binding signal (ELK1),binding signal (ELK3),binding signal (SPIC),binding signal (ETS2),binding signal (ETV3)
GTGGTA,0.912,0.815,0.874,0.942,0.806
AGCATA,0.914,0.977,0.863,0.953,0.945
ACTGGG,0.766,0.835,0.977,0.836,0.826
TGCGTC,0.914,0.974,0.983,1,0.93
CTGTGT,0.8,0.894,0.838,0.916,0.869
ACAGTT,0.887,0.945,0.871,0.809,0.943
GACCCA,0.912,0.917,0.922,0.875,0.827
TTCGGG,0.745,0.882,0.94,0.921,1.03
GTAATC,1.14,1.11,0.972,1.16,1.1
CGGACC,0.801,0.74,0.718,0.786,0.873
GTTGAA,0.86,0.89,0.881,0.885,0.874
GAGAAT,0.716,0.792,0.734,0.758,0.728
CATTGG,0.935,0.958,0.95,0.962,0.883
GCAGAA,0.869,0.891,1.03,0.901,0.849
TGAAGG,0.844,0.869,0.949,0.91,0.937
CGCGCA,0.944,1.01,1.01,0.953,0.929
AAGCCG,0.939,0.968,0.892,0.863,0.916
TGGAAC,0.953,0.969,0.985,0.919,0.955
CGTTGG,0.853,0.862,0.889,0.87,0.813
GACCGA,0.817,0.826,0.881,0.839,0.795

# Another view of some results above:
Sequence	binding signal (ELK1)	binding signal (ELK3)	binding signal (SPIC)	binding signal (ETS2)	binding signal (ETV3)
GACCCA	0.912	0.917	0.922	0.875	0.827
TTCGGG	0.745	0.882	0.94	0.921	1.03
